Source: the supplement of paper PMC6411743
± gives the standard deviation of the averaged measurements. This is a selection; strong and weak results do not stand in their true shares. Most entries show no effect beyond the scatter of the controls.

The chains behind the UniProt entries cited, without tags or fusion partners. Where a name states a change or a piece, a line headed by the entry shows the natural chain unless it says otherwise.
UniProt Q9UIV1, whole entry: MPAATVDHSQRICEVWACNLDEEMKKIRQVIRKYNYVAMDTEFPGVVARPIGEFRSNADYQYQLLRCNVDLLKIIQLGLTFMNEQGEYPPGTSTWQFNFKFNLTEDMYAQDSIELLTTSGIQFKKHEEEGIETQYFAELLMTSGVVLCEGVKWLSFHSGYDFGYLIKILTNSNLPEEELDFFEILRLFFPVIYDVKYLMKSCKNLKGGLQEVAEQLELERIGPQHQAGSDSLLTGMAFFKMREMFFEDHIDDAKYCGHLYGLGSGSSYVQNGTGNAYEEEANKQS
UniProt Q9UEY8: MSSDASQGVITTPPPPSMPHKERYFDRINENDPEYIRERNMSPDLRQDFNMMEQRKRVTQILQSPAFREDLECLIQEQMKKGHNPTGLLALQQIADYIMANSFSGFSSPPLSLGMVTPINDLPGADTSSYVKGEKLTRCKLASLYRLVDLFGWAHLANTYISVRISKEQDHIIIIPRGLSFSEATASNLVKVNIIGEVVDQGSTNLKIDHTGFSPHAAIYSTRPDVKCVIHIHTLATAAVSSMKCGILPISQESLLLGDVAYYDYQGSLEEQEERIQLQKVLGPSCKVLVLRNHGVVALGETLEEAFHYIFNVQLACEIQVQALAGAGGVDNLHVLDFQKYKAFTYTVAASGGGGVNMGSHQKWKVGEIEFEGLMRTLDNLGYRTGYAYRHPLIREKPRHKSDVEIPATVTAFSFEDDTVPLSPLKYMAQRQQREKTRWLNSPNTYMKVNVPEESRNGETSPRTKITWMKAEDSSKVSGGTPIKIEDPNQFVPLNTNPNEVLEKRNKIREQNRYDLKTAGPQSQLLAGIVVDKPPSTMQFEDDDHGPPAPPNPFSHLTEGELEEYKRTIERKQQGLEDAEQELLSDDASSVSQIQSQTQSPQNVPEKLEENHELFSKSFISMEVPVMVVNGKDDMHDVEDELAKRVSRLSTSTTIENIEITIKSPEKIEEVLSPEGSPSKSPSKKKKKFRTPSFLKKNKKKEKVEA
UniProt Q9ULU4: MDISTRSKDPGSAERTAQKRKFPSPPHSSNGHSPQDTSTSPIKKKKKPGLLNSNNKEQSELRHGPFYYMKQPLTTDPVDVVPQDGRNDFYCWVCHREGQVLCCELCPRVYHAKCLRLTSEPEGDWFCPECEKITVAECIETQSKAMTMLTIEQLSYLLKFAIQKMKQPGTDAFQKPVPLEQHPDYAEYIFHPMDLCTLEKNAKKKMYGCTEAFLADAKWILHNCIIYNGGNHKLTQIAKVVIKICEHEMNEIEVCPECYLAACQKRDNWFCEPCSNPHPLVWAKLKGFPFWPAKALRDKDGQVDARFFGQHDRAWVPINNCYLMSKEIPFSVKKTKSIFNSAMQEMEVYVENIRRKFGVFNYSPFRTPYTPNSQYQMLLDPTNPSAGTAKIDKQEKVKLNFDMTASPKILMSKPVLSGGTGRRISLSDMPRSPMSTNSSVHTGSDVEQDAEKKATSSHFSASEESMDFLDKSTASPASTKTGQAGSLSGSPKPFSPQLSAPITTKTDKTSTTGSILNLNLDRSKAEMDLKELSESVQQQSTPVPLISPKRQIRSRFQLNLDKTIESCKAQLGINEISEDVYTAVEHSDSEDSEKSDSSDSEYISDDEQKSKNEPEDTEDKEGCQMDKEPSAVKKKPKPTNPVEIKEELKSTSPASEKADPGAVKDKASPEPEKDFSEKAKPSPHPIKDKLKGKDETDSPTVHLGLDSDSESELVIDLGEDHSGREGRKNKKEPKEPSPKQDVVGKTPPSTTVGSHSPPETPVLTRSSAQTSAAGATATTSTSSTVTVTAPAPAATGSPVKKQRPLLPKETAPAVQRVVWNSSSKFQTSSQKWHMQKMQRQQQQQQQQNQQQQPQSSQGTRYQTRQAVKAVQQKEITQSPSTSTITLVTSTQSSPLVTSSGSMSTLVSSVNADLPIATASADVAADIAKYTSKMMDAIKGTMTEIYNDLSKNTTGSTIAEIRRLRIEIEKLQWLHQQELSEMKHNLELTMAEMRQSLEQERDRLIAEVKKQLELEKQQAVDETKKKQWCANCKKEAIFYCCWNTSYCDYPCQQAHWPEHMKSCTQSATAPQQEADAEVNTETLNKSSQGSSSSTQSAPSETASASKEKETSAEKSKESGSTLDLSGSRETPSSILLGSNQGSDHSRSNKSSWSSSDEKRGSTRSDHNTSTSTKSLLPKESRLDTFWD
UniProt Q9UHB6: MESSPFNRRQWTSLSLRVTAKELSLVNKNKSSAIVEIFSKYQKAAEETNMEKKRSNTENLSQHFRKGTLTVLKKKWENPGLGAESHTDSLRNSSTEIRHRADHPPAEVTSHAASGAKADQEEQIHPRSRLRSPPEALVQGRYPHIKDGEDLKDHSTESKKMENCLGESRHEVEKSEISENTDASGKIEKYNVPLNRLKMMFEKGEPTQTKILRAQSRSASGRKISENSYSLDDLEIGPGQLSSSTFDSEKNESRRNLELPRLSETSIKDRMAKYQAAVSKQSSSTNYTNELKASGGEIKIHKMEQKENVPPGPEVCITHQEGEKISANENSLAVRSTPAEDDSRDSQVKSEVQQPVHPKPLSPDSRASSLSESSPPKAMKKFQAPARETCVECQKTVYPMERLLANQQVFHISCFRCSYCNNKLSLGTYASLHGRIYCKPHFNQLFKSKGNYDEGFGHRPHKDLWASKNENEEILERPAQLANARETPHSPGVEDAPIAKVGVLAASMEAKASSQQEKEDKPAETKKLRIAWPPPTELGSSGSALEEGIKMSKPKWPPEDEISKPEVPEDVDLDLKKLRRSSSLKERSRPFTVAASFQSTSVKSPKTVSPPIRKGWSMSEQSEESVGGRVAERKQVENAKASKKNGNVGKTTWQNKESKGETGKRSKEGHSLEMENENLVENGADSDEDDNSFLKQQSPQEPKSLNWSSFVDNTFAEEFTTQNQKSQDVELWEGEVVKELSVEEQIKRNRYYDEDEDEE
UniProt Q9ULC4: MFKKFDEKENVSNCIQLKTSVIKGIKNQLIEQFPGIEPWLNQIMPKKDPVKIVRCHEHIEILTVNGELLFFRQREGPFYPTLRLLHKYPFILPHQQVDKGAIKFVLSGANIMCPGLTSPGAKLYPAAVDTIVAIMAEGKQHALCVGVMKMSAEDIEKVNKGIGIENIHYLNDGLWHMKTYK
UniProt Q9UG63: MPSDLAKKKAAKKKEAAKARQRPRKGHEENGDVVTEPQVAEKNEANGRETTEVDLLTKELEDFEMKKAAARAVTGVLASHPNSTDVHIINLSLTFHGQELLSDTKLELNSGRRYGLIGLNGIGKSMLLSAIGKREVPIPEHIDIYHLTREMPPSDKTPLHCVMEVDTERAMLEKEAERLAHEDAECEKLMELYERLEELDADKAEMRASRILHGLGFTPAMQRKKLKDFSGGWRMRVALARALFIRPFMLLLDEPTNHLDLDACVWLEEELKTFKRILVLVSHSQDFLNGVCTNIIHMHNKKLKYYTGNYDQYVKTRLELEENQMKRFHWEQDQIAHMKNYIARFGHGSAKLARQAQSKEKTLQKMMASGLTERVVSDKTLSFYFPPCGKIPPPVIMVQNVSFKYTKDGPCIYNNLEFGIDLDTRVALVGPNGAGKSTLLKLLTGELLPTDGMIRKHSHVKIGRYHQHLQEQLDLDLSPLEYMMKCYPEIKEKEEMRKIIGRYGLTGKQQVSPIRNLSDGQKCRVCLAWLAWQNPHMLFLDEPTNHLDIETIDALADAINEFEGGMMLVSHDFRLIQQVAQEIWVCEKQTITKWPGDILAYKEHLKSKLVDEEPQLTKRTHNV
UniProt Q9UFW8: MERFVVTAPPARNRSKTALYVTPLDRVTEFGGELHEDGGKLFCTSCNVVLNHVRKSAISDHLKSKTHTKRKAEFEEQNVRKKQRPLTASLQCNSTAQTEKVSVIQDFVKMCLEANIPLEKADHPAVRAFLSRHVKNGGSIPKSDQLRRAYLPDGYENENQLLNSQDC
UniProt Q9ULJ7: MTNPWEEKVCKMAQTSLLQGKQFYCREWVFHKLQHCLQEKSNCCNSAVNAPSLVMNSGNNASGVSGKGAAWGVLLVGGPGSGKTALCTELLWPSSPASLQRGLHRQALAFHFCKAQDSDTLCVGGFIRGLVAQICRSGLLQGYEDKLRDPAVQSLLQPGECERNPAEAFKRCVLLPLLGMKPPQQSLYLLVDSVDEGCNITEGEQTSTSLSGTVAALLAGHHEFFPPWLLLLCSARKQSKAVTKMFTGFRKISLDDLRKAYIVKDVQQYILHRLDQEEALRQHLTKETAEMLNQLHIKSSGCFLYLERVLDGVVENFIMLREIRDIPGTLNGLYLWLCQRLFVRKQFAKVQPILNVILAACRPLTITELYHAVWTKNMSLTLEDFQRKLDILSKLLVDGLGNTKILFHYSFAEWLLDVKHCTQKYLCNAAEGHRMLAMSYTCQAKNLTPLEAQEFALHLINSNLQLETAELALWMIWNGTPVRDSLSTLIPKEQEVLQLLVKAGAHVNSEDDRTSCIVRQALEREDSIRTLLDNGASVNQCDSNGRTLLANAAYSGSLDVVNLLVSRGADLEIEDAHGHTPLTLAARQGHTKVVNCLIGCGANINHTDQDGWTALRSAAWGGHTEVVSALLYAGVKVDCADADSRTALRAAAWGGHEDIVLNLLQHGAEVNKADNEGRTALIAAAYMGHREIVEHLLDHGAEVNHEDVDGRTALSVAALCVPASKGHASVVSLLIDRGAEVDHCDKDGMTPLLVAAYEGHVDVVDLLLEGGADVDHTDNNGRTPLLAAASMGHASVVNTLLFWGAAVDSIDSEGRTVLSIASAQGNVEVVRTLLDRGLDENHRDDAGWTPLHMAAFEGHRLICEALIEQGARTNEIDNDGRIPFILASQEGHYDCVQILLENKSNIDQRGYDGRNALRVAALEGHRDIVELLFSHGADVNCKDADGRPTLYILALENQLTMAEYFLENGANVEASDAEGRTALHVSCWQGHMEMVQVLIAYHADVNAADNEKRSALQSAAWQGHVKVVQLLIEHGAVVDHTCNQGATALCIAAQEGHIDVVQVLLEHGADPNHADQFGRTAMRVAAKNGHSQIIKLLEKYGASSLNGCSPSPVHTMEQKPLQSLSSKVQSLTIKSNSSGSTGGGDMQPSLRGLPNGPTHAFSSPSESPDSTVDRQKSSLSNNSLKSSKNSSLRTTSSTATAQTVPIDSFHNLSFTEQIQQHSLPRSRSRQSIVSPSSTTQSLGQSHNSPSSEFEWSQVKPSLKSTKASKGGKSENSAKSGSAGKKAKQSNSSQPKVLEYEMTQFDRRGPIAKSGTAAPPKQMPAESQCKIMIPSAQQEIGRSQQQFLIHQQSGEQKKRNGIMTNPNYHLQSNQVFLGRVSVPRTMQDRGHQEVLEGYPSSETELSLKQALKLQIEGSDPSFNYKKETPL
UniProt Q9UIQ6, whole entry: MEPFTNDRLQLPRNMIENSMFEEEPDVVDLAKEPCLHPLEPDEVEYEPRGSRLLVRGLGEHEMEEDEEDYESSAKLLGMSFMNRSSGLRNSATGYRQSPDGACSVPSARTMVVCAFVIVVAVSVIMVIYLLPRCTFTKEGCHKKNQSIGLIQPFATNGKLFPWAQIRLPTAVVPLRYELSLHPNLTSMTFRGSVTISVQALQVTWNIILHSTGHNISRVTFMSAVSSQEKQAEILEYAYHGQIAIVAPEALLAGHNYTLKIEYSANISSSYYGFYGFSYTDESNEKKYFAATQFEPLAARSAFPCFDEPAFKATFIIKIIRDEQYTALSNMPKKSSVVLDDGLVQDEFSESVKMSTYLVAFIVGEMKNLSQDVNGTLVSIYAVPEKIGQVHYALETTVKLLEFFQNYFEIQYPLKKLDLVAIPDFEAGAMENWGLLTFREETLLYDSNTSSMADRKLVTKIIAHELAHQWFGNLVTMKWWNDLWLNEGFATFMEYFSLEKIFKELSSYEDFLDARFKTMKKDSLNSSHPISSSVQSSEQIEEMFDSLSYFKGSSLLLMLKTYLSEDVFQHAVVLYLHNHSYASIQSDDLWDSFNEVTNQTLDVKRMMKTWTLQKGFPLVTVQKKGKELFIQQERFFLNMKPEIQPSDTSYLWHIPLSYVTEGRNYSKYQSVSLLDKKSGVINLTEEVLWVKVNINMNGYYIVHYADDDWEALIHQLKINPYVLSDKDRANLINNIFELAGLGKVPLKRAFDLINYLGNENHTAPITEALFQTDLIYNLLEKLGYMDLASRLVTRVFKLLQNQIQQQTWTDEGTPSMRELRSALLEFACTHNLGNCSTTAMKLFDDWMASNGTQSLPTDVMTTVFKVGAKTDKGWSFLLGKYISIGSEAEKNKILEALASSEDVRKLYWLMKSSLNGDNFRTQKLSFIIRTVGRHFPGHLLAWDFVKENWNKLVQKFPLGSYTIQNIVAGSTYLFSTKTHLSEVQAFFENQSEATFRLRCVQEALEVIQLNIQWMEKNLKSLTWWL

Compound: Nc1ncnc2c1ncn2[C@@H]1O[C@H](COP(=O)(O)OP(=O)(O)OP(=O)(O)O)[C@@H](O)[C@H]1O [adenosine triphosphate]
Experiment: NP40-soluble protein abundance relative to vehicle (solubility fold change) (ratio); higher = more soluble protein in presence of ATP
Summary of the method: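 Across three independent experiments, values are fold changes against the detergent-processed vehicle for each replicate, based on vsn-normalised intensities. The samples were Jurkat crude lysate treated with eight concentrations (0.1 to 10 mM) for 10 min at room temperature and then 3 min at 37 °C. Lysate was solubilised with 0.8% NP40 and benzonase, ultracentrifuged, and the supernatant analysed by TMT-labelled LC-MS/MS.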

Target	NP40-soluble protein abundance (concentration: 0.1mM)	NP40-soluble protein abundance (concentration: 0.5mM)	NP40-soluble protein abundance (concentration: 1mM)	NP40-soluble protein abundance (concentration: 2mM)	NP40-soluble protein abundance (concentration: 4mM)	NP40-soluble protein abundance (concentration: 6mM)	NP40-soluble protein abundance (concentration: 8mM)	NP40-soluble protein abundance (concentration: 10mM)
UniProt Q9UBF8-2	1.01 ± 0.047	0.952 ± 0.028	0.962 ± 0.044	0.961 ± 0.065	0.9581 ± 0.0056	0.938 ± 0.011	0.9049 ± 0.007	0.928 ± 0.026
CNOT7 (UniProt Q9UIV1)	1.12 ± 0.082	1.12 ± 0.033	1.23 ± 0.044	1.22 ± 0.06	1.29 ± 0.038	1.25 ± 0.037	1.3 ± 0.061	1.26 ± 0.076
UniProt Q9UEY8 and related entries	1.02 ± 0.043	1.04 ± 0.042	1.01 ± 0.019	1.02 ± 0.018	1.01 ± 0.014	1.02 ± 0.035	0.99 ± 0.023	1.004 ± 0.0086
UniProt Q9ULU4 and related entries	0.989 ± 0.038	1.04 ± 0.059						
UniProt Q9UHB6 and related entries	0.801 ± 0.055	0.945 ± 0.071	1.05 ± 0.14	1.16 ± 0.14	1.35 ± 0.16	1.56 ± 0.21	1.62 ± 0.12	1.86 ± 0.18
UniProt Q9ULC4 and related entries	1 ± 0.039	1.04 ± 0.043						
ACAD8 (UniProt Q9UKU7)	1.06 ± 0.037	1.04 ± 0.06	1.01 ± 0.049	1 ± 0.064	0.988 ± 0.033	0.961 ± 0.058	0.983 ± 0.029	0.99 ± 0.038
PARP4 (UniProt Q9UKK3)	1.09 ± 0.02	1.14 ± 0.067	1.14 ± 0.017	1.15 ± 0.12	1.12 ± 0.083	1.15 ± 0.14	1.14 ± 0.042	1.19 ± 0.085
UniProt Q9UKI8 and related entries	1.06 ± 0.029	1.04 ± 0.028	0.986 ± 0.039	0.998 ± 0.025	1 ± 0.059	0.993 ± 0.041	0.953 ± 0.021	0.977 ± 0.054
UniProt Q9UG63 and related entries	0.982 ± 0.021	0.9991 ± 0.0098	1.09 ± 0.033	1.15 ± 0.039	1.42 ± 0.019	1.67 ± 0.095	2.16 ± 0.093	2.59 ± 0.25
CGGBP1 (UniProt Q9UFW8)	0.953 ± 0.083	0.947 ± 0.086						
UniProt Q9UPN4-2|Q9UPN4-3|I3L2J8 and related entries	1.02 ± 0.056	1.01 ± 0.049	1.15 ± 0.14	1.18 ± 0.14	1.35 ± 0.12	1.45 ± 0.21	1.47 ± 0.26	1.7 ± 0.26
UniProt Q9UL15 and related entries	0.98 ± 0.011	1.02 ± 0.05	0.964 ± 0.032	0.988 ± 0.024	0.976 ± 0.035	0.993 ± 0.018	0.971 ± 0.01	0.979 ± 0.029
ANKRD50 (UniProt Q9ULJ7)	1.02 ± 0.067	1.06 ± 0.028						
LNPEP (UniProt Q9UIQ6)	0.908 ± 0.037	0.915 ± 0.052	0.914 ± 0.015	0.937 ± 0.021	0.909 ± 0.022	0.918 ± 0.035	0.882 ± 0.045	0.872 ± 0.038

2 entries from above, comma-delimited.
Target,NP40-soluble protein abundance (concentration: 0.1mM),NP40-soluble protein abundance (concentration: 0.5mM),NP40-soluble protein abundance (concentration: 1mM),NP40-soluble protein abundance (concentration: 2mM),NP40-soluble protein abundance (concentration: 4mM),NP40-soluble protein abundance (concentration: 6mM),NP40-soluble protein abundance (concentration: 8mM),NP40-soluble protein abundance (concentration: 10mM)
ANKRD50 (UniProt Q9ULJ7),1.02 ± 0.067,1.06 ± 0.028,,,,,,
LNPEP (UniProt Q9UIQ6),0.908 ± 0.037,0.915 ± 0.052,0.914 ± 0.015,0.937 ± 0.021,0.909 ± 0.022,0.918 ± 0.035,0.882 ± 0.045,0.872 ± 0.038
